No constants are given. Whether binding was seen depends on the method and setting. Binding calls can cover weak binding; strength is not graded here. Tags and fused reporters may be left off the sequences shown. For some assays here: Binding seen in cells or lysates may run through a third protein.

Experiment [1] addresses AtNusG:YFP^N (Arabidopsis thaliana). Put plainly: split reporter; BiFC with split YFP (pUC-SPYNE, pUC-SPYCE) in Arabidopsis protoplasts, confocal microscopy.
The target in experiment [2] is AtNusG:YFP^C (Arabidopsis thaliana). The experiment is described as above.
Experiment [3] concerns the target MBP:AtNusG (AtNusG^106-333) (Arabidopsis thaliana) (UniProt F4IZV4). Put plainly: pull-down; MBP:AtNusG or empty MBP held on MBP beads, PAP9:His added overnight at 4°C, 20 mM Tris-HCl pH 7.0, 200 mM NaCl; immunoblot with anti-His-tag antibody; both purified. (In general: Immunoblotting shows a protein as a band on a membrane.)
The target of experiment [4] is AtNusG:MYC (Nicotiana benthamiana) (Arabidopsis thaliana). Kind of experiment: co-IP; PAP9:FLAG and AtNusG:MYC coproduced in N. benthamiana leaves; anti-c-MYC magnetic beads, 4°C, 4 h; immunoblot with anti-FLAG.

B1: PAP8:YFP^C (protein, UniProt Q9XI19 60-328)
chain: ADGGGADEYDMDDEEVEEVDNKKDYDVEYDPLAAAIAAAGGGGDGDIAFVQSKSFISTQGWDSDMVVDYRINEDEFHKLSLMDCDFFIRKPPDPDNDVYDFREMYVTPPDTDIYSIPRVLAPMPQKYIRCAMSDYGCYNVTEPPIDAPRDPLYKSEREISKVFLTKHYRNRRTNDPEFVLDLEEIYVIDSKTKSITRARVLVTVPGGRKRDRKDDLLVIRDNGTSFKIIHVGERDDPTTVIEREEWTKTREDMEKHLRKLRDFSVSNWF
For B1, the binding result in experiment [1] is on record as “no binding”.

B2: PAP7:YFP^C (protein, UniProt Q84JF5 63-483)
chain: ASEESSSSELETADPDFYKIGYVRSVRAYGVEFKEGPDGFGVYASKDIEPRRRARVIMEIPLELMITIRQKHPWMFFPDIVPIGHPIFDIINSTDPEIDWDIRLACLLLFSFDRDDHFWRLYGDFLPAADECSSLLLATEEDLAELQDPDLVSTIRQQQKRILDFWEKNWHSGVPLKIKRLAEDPERFIWAVSMAQTRCISMQTRVGALVQELNMMIPYADMLNHSFEPNCFLHWRPKDRMLEVMSNAGQDIKKGEEMTINYMPGQKNNMLMERYGFSTPVNPWDAIKFSGDSRIHLNSFLSVFNIYGLPEEYYHDSELSRGDTFVDGAVIAAARTLPTWSDIDLPPIPSAERKAVKELQDECRKMLAEYPTTAEQDQKLLDSMSEARTTFATAVKYRMHRKMFIGKIIKALDIYQERLLY
As to B2, the binding result in experiment [1] is given as “no binding”.

B3: PAP6:YFP^C (protein, UniProt Q9M394 39-471)
chain: ASINGSGITNGAAAETTSKPSRKGRKKKQTSTVIEKDNTETDPELNPELADYDDGIEFPYDDPPLVCCFGAVQKEFVPVVRVHDNPMHPDMYSQWKMLQWDPPEFGRAPGGPPSNVAISHVRLGGRAAFMGKVGEDDFGDELVLMMNQERVQTRAVKFDENSKTACTRVKIKFKDGKMMAETVKEPPEDSLFASELNLAVLKEARIFHFNSEVLTSPTMQSTLFTAIQWSKKFGGLIFFDLNLPLPLWRSRNETRKLIKKAWNEANIIEVSQQELEFLLDEDYYERRRNYTPQYFAEDFDQTKNRRDYYHYTPEEIKSLWHDKLKLLVVTDGTLRLHYYTPTFDGVVIGTEDVLITPFTCDRTGSGDAVVAGIMRKLTTCPEMFEDQDVMERQLRFAVAAGIIAQWTIGAVRGFPTESATQNLKEQVYVPSMW
Take B3: the binding result in experiment [1] is on record as “no binding”.

B4: PAP10:YFP^C (protein, UniProt Q9M7X9 82-183)
chain: AQELQELVKGDRKVPLIVDFYATWCGPCILMAQELEMLAVEYESNAIIVKVDTDDEYEFARDMQVRGLPTLFFISPDPSKDAIRTEGLIPLQMMHDIIDNEM
For the molecule B4, in experiment [1], the binding entry is listed as “no binding”.

B5: PRPS10:YFP^N (protein, UniProt Q9LK61 57-191)
chain: AVPDTLDPTPEILDEPASEVPSSSSISVDADKMAPKQKIRIKLRSYWVPLIEDSCKQILDAARNTNAKTMGPVPLPTKKRIYCVLKSPHVHKDARFHFEIRTHQRMIDILYPTAQTIDSLMQLDLPAGVDVEVKL
In the case of B5, in experiment [2], the binding result is given as “binds”.

B6: PRPS10:YFP^C (protein, UniProt Q9LK61 57-191)
chain: AVPDTLDPTPEILDEPASEVPSSSSISVDADKMAPKQKIRIKLRSYWVPLIEDSCKQILDAARNTNAKTMGPVPLPTKKRIYCVLKSPHVHKDARFHFEIRTHQRMIDILYPTAQTIDSLMQLDLPAGVDVEVKL
For the molecule B6, the binding result in experiment [1] is “binds”.

B7: FSD2/PAP9:YFP^C (protein, UniProt Q9LU64 47-305)
chain: GVITAGFELKPPPYPLDALEPHMSRETLDYHWGKHHKTYVENLNKQILGTDLDALSLEEVVLLSYNKGNMLPAFNNAAQAWNHEFFWESIQPGGGGKPTGELLRLIERDFGSFEEFLERFKSAAASNFGSGWTWLAYKANRLDVANAVNPLPKEEDKKLVIVKTPNAVNPLVWDYSPLLTIDTWEHAYYLDFENRRAEYINTFMEKLVSWETVSTRLESAIARAVQREQEGTETEDEENPDDEVPEVYLDSDIDVSEVD
With B7, the binding entry in experiment [1] is given as “binds”.

B8: PAP9:His (protein, UniProt Q9LU64 47-305)
chain: GVITAGFELKPPPYPLDALEPHMSRETLDYHWGKHHKTYVENLNKQILGTDLDALSLEEVVLLSYNKGNMLPAFNNAAQAWNHEFFWESIQPGGGGKPTGELLRLIERDFGSFEEFLERFKSAAASNFGSGWTWLAYKANRLDVANAVNPLPKEEDKKLVIVKTPNAVNPLVWDYSPLLTIDTWEHAYYLDFENRRAEYINTFMEKLVSWETVSTRLESAIARAVQREQEGTETEDEENPDDEVPEVYLDSDIDVSEVD
With B8, the binding result in experiment [3] is given as “binds”.

B9: PAP9:FLAG (protein, UniProt Q9LU64 47-305)
chain: GVITAGFELKPPPYPLDALEPHMSRETLDYHWGKHHKTYVENLNKQILGTDLDALSLEEVVLLSYNKGNMLPAFNNAAQAWNHEFFWESIQPGGGGKPTGELLRLIERDFGSFEEFLERFKSAAASNFGSGWTWLAYKANRLDVANAVNPLPKEEDKKLVIVKTPNAVNPLVWDYSPLLTIDTWEHAYYLDFENRRAEYINTFMEKLVSWETVSTRLESAIARAVQREQEGTETEDEENPDDEVPEVYLDSDIDVSEVD
As for B9, in experiment [4], the binding result is recorded as “binds”.

B10: FSD2/PAP9:YFP^N (protein, UniProt Q9LU64 47-305)
chain: GVITAGFELKPPPYPLDALEPHMSRETLDYHWGKHHKTYVENLNKQILGTDLDALSLEEVVLLSYNKGNMLPAFNNAAQAWNHEFFWESIQPGGGGKPTGELLRLIERDFGSFEEFLERFKSAAASNFGSGWTWLAYKANRLDVANAVNPLPKEEDKKLVIVKTPNAVNPLVWDYSPLLTIDTWEHAYYLDFENRRAEYINTFMEKLVSWETVSTRLESAIARAVQREQEGTETEDEENPDDEVPEVYLDSDIDVSEVD
Take B10: the binding entry in experiment [2] was “binds”.

B11: PAP5:YFP^C (protein, UniProt F4IHY7 31-527)
chain: VKCGFPLKTLHAGITSRDRSLRHCIKCKKEDGDGDVSEGSKKSEEGFEYVTVERHPYHSYMDSTSGKLEPASGARASIPGEDYWPEGTSSRVRAARAPQPAGESSSFPSYGKNPGSRRKKNRKATEENVTVETNDEVSDSEDSSEEEENDSSDGFVTYKNEFEREEEETGFELDKKLGRPHPFIDPTKKKQIEKTLTSDESWWNWRKPEKEQWSRWQRRRPDVETVFLKAMAETGQVKLYGEEPTLTETSLYRARRHLFKEERLQAERERLAKEGPMAFYSEWVKAWKRDTSREAVQKHFEETGEDENTQLIEMFSHQTDREYRIMMGTDIRIKRDPLAMRMREDQIKQIWGGDPVYPTINYIQDPNAVMDFRGPDFHEPTPNMLSYLKENGKVISREMHEALLTKEKTEQLEVPDMDDAMAQAVDIGENDDDEDDADVEKDDEKVPRNWSVLKETPELRTAKPKPKKEGRMSLDEAVDDAENLTDFLMDFEEETDP
B11: in experiment [1], the binding entry is reported as “no binding”.

Values taken from PMC9262611.
